Sequences of proteins named here, by UniProt entry; tags and fusion partners are left off. A change or cut given only in a name is not applied to a line headed by its entry. Residues count along the entry.
UniProt O75914, whole entry: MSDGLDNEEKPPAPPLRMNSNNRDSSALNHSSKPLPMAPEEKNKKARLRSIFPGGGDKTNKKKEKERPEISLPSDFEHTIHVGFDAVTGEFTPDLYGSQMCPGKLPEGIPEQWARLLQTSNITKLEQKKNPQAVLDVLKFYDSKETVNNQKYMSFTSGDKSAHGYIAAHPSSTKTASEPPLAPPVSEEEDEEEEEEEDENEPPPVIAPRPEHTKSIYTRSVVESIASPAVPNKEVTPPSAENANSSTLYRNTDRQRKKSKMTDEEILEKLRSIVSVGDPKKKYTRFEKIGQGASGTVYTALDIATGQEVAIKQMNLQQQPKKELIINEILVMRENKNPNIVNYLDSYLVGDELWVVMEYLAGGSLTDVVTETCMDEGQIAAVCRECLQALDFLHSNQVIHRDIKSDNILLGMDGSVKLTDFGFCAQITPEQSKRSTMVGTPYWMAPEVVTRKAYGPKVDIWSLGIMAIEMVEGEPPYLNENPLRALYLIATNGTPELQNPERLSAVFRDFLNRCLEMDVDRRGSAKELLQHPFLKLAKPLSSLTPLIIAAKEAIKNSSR
UniProt P25098: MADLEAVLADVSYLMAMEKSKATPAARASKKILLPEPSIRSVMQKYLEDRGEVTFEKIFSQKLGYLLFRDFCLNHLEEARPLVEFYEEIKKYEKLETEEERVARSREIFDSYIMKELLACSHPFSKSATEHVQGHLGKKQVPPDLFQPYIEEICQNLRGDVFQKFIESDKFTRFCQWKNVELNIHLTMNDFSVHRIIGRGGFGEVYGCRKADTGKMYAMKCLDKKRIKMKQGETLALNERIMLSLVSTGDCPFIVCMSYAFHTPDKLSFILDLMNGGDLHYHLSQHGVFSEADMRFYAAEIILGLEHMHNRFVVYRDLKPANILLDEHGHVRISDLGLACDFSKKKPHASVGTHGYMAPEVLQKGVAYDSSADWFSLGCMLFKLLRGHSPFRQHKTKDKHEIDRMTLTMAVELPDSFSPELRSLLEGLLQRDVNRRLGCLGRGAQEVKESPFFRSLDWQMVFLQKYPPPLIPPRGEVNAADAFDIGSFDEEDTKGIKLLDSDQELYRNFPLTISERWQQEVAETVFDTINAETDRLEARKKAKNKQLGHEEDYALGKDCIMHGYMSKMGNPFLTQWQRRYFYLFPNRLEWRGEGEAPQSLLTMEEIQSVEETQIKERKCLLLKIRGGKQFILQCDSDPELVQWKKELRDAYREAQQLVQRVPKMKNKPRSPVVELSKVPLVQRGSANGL
UniProt Q16584: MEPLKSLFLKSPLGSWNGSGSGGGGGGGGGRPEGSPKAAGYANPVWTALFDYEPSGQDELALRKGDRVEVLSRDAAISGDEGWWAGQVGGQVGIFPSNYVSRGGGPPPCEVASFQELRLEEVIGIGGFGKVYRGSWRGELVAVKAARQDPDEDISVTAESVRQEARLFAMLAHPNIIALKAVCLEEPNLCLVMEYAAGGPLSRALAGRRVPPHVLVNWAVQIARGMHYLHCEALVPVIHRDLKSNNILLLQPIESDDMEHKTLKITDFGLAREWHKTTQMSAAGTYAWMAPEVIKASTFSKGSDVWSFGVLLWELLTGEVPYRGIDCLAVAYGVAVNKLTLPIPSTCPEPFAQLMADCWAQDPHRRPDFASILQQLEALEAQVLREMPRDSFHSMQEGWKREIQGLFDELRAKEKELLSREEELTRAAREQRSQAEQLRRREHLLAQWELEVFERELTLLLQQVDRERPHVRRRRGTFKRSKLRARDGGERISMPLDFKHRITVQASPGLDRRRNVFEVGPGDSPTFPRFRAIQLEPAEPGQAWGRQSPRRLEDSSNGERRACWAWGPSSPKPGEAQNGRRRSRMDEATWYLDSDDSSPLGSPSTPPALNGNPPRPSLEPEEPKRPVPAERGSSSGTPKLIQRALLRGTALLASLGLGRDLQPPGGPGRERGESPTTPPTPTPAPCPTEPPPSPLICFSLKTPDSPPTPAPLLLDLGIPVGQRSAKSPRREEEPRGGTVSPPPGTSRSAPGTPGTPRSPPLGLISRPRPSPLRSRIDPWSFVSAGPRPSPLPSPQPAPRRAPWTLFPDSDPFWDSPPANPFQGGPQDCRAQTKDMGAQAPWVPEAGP
UniProt P30530, 26-894: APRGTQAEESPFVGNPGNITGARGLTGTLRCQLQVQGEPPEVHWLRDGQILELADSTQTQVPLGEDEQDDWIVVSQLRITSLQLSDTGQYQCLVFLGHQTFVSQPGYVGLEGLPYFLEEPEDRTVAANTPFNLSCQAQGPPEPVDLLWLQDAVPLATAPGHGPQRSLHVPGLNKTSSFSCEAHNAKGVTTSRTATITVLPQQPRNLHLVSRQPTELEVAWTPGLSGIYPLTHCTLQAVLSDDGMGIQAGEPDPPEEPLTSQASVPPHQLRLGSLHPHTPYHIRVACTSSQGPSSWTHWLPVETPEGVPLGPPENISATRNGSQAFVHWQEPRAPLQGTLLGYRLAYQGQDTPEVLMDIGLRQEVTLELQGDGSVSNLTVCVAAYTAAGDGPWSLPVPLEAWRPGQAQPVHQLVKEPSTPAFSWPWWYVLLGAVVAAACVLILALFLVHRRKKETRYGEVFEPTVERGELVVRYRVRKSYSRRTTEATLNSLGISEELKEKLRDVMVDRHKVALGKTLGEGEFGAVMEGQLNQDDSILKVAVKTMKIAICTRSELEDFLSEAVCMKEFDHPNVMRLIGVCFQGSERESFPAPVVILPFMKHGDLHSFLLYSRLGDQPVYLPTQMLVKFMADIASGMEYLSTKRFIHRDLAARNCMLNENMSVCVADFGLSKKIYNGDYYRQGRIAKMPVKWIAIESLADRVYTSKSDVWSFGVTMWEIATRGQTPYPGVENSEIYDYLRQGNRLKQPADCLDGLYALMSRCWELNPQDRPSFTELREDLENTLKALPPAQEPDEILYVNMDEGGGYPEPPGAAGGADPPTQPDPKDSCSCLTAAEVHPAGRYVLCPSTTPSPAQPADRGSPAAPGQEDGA
UniProt P43403, whole entry, species assumed: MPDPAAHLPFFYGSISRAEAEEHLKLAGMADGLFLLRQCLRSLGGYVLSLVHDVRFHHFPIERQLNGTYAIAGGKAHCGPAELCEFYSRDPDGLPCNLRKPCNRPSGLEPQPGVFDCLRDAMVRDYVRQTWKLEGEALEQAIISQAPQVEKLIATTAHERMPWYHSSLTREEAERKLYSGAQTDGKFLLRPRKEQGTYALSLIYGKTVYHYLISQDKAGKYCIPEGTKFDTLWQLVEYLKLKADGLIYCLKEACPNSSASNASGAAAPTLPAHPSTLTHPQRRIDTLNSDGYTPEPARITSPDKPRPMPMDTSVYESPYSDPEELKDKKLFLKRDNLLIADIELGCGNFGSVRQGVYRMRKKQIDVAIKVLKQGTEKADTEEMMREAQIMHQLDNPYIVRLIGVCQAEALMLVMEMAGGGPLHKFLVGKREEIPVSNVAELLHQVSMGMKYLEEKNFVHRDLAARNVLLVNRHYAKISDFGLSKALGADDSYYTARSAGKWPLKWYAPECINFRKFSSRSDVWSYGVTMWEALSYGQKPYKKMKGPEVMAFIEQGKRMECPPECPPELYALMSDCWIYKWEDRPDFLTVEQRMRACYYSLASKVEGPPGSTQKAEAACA
UniProt P49761: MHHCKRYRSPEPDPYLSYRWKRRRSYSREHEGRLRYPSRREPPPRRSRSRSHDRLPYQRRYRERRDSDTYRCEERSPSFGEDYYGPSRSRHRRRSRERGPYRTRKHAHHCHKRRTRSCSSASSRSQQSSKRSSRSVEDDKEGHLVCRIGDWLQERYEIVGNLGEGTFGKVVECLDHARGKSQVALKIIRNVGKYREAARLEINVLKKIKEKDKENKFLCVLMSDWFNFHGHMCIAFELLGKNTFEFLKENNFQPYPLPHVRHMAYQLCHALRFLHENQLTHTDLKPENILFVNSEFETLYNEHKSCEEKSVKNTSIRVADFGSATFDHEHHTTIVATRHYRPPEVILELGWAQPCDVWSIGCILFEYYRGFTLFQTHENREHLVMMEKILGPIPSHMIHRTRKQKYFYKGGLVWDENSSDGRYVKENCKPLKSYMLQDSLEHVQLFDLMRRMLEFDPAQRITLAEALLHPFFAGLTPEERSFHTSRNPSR
UniProt Q06187: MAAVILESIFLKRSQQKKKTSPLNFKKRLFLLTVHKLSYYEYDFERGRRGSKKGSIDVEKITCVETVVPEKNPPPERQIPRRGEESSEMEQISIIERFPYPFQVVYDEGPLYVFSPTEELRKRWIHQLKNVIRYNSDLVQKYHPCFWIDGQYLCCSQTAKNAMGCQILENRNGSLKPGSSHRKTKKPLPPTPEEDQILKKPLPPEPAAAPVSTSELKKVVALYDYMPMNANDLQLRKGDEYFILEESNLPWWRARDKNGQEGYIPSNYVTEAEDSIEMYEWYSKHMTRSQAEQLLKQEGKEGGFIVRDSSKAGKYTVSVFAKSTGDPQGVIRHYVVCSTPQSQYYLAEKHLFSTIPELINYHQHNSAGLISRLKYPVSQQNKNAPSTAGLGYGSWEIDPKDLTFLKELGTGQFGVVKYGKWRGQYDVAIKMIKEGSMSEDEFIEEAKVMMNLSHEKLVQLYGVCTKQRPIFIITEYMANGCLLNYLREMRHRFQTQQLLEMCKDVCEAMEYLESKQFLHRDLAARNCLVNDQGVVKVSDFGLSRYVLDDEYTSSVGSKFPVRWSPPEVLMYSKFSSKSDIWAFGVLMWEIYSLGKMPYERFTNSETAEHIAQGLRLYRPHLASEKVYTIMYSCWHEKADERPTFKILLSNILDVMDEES
UniProt Q99759: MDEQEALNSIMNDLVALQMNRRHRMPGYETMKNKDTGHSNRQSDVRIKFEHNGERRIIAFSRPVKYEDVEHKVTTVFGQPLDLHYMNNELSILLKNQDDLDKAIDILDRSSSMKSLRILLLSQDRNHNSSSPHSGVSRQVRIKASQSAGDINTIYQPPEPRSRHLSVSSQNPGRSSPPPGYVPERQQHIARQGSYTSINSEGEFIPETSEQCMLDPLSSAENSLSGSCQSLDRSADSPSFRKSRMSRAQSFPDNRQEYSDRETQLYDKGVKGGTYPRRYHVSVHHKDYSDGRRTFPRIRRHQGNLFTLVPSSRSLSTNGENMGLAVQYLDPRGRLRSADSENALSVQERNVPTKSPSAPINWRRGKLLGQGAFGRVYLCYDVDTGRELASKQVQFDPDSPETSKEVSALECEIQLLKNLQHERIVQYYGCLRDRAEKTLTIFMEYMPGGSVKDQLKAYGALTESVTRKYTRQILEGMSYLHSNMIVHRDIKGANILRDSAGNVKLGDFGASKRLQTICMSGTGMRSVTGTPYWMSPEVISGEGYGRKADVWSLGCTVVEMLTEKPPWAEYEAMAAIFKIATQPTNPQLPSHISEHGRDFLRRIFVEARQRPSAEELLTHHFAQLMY
UniProt P06493, whole entry: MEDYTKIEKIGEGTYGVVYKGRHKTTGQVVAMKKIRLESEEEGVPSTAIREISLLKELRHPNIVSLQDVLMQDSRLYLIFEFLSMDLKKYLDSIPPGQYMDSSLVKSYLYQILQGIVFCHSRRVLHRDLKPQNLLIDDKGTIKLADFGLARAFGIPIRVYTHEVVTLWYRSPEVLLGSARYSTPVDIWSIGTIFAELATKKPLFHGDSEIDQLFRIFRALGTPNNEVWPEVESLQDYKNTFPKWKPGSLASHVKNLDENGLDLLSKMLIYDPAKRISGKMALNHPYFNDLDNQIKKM
UniProt Q9BWU1: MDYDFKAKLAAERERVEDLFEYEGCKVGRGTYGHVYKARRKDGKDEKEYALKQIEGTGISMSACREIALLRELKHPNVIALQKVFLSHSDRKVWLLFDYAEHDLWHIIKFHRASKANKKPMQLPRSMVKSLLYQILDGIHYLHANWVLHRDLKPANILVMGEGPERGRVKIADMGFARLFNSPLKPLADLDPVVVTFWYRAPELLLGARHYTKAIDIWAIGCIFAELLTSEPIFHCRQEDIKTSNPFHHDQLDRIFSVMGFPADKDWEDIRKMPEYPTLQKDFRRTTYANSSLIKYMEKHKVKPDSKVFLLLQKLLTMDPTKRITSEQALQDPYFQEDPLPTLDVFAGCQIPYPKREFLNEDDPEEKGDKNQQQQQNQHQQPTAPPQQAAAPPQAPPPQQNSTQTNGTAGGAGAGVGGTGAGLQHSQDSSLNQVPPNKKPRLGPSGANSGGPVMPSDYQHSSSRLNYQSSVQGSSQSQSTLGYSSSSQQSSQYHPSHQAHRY

In publication PMC8213057, “Targeting ALK2: An Open Science Approach to Developing Therapeutics for the Treatment of Diffuse Intrinsic Pontine Glioma” (Journal of Medicinal Chemistry, 2020):

Columns and labels:
[1] = target: PAK3 (Homo sapiens, UniProt O75914); assay: biochemical; details: read-out: % enzyme activity, 1 μM; Run 1, Run 2
[2] = target: T1, GRK2 (Homo sapiens, UniProt P25098); details: 1 μM; Run 1, Run 2
[3] = target: MLK3/MAP3K11 (Homo sapiens, UniProt Q16584); details: 1 μM; Run 1, Run 2
[4] = target: T1, GRK2; assay: biochemical; details: read-out: % enzyme activity, 1 μM; Run 1, Run 2
[5] = target: AXL (Homo sapiens, UniProt P30530); assay: biochemical; details: read-out: % enzyme activity, 1 μM; Run 1, Run 2
[6] = target: ZAP70 (Homo sapiens, UniProt P43403); assay: biochemical; details: read-out: % enzyme activity, 1 μM; Run 1, Run 2
[7] = target: CLK3 (Homo sapiens, UniProt P49761); details: 1 μM; Run 1, Run 2
[8] = target: BTK (Homo sapiens, UniProt Q06187); details: 1 μM; Run 1, Run 2
[9] = target: MEKK3 (Homo sapiens, UniProt Q99759); details: 1 μM; Run 1, Run 2
[10] = target: CDK1/cyclin E (Homo sapiens, UniProt P06493); assay: biochemical; details: read-out: % enzyme activity, 1 μM; Run 1, Run 2
[11] = target: FGR (Homo sapiens, UniProt P09769); details: 1 μM; Run 1, Run 2
[12] = target: CDK19/cyclin C (Homo sapiens, UniProt Q9BWU1); assay: biochemical; details: read-out: % enzyme activity, 1 μM; Run 1, Run 2

COc1cc(-c2cncc(-c3ccc(N4CCN(C(C)C)CC4)cc3)c2C)cc(F)c1C(N)=O [Compound 26b, 2-Fluoro-4-(5-(4-(4-isopropylpiperazin-1-yl)phenyl)-4-methylpyridin-3-yl)-6-methoxybenzamide]
remaining activity at 1 µM [1]: 90.2% | % enzyme activity [2]: 105.76% | % enzyme activity [3]: 101.95% | remaining activity at 1 µM [4]: 106% | remaining activity at 1 µM [5]: 81.1% | remaining activity at 1 µM [6]: 99.6% | % enzyme activity [7]: 91.99% | % enzyme activity [8]: 97.62% | % enzyme activity [9]: 92.94% | remaining activity at 1 µM [10]: 100% | % enzyme activity [11]: 91.32% | remaining activity at 1 µM [12]: 82.4%
